At least one compound was matched to its structure with a doubt left.
System: women
Test: administration of vardenafil hydrochloride or tadalafil to women prior to sexual activity
Type: in vivo, human
Conditions: drug given prior to sexual activity
Protocol: More particularly, the initial step in the process comprising the first embodiment of the invention comprises identifying a woman desiring sexual enhancement. […] Thereafter, the woman's blood is tested to determine the levels of estradiol and testosterone. If the woman's blood contains an estradiol level within a first predetermined range and a testosterone level within a second predetermined range, the process of the present invention continues. If not, the woman is treated utilizing conventional techniques to bring the level of estradiol in her blood to within the first predetermined range and/or to bring the level of testosterone in her blood to within the second predetermined range. […]
After the required levels of estradiol and testosterone in the woman's blood have either been confirmed or established, a drug selected from the group consisting of vardenafil hydrochloride and tadalafil is administered to the woman prior to sexual activity. […] It has been determined that the selected drug should be administered at least 15-20 minutes prior to the beginning of sexual activity. The optimum time interval between administration of the selected drug and the beginning of sexual activity may vary depending on the particular circumstances and is best determined by the woman through experimentation. […]

CN1CC(=O)N2[C@H](c3ccc4c(c3)OCO4)c3[nH]c4ccccc4c3C[C@@H]2C1=O [tadalafil]
enhancement of sexual arousal and sexual satisfaction in females: significant enhancement
